Some of the results follow. Measured potencies and affinities stand elsewhere. Where no call is shown, the source marks the result inconclusive.

This assay can be described thus: Trypanosoma cruzi growth suppression in host cells – NIH3T3 host cells, beta-gal luminescence, confirmation (AID 2044). To be noted: T. cruzi beta-gal in NIH3T3, GalScreen luminescence, 90 h; at 3 µM (top of the series).
`COc1ccc(C2CC(c3ccccc3)=NN2C(=O)c2ccc(Cl)c([N+](=O)[O-])c2)cc1` (stereo not given): the activity change, negative = inhibition was 57.5%.
As to `COc1ccc(C(CCN)Cc2ccccc2)cc1` (stereo not given), the activity change, negative = inhibition is 32.1%.
Turning to `NC(=S)Nc1cccc2[nH]ccc12`, the activity change, negative = inhibition was 24.7%.
As for `CSc1nc(-c2ccc(C)cc2)nc(C(Cl)Cl)n1`, the activity change, negative = inhibition stood at 89.6%.
Take `CC(NC=C1C(=O)OC(C)(C)OC1=O)C(=O)O` (stereo not given): the activity change, negative = inhibition is -30.8%.

Source of the values: PubChem BioAssay AID2044 (Broad Institute, 2009).
